This is one part of the list.
B1: il2ra_site2_2erj_normal_mot_HHH_b2_05804_000000098_0001_44_58_H_._HHH_b2_06227_af2_0001_0001300021_0000001_0 (protein)
chain: SSSSSSKEVWEQVAELLAKAAHVDEEEAEELLKEAERLAEEANNEFLKRYIEFVRRALESSSSSS
B2: il2ra_site2_2erj_normal_mot_HHH_b2_08130_000000073_0001_1_17_H_._HHH_b1_02674_0001_0000200002_0000001_0_1_af2pred_0001_1_af2pred_swapped (protein)
chain: SSSSSEEEARELVEEARRALEEGNPQEAEEIAIRLLLLAQEVGDPEVRRLLEELARRLARLSSSS
B3: il2ra_site1_3nfp_sap_13_mot_HHH_b2_06429_af2_000000115_0001_1_18_H_._HHH_b1_02888_0001_0000700049_0000001_0_0001 (protein)
chain: SSSSSELEELFRRAFELAQNGNYEEAEEVLEEARKVAEERNSEATLRFLEIALKIVKRAKSSSSS
B4: il2ra_site2_2erj_normal_mot_b21041926606bcd66a54c4cea8303fc2_0001_1_af2_000000031_0001_15_29_H_._HHH_b2_03606_0001_0000700028_0000001_0 (protein)
chain: SSSSSSDEDVKEVAELLFKAARIEDEEERREVLEQAREVAEKTNNEALKRYIEFQERDLSSSSSS
B5: il2ra_site1_1z92_sap_16_mot_HHH_b1_02849_000000017_0001_22_39_H_._HHH_b1_06964_0001_0000100005_0000001_1_0001_af2pred_0001_af2pred_1 (protein)
chain: NTEELLKQARERGTLEEFVAEIIREMRENGFPPKNIRIFVRQLLRKLGLSPEEVEEVSEKAEELG
B6: il2ra_site2_3nfp_normal_mot_HHH_b1_00660_af2_000000090_0001_40_57_H_._HHH_b2_07007_0001_0000300027_0000001_0_af2pred_0001_1_af2pred_swapped (protein)
chain: SSSSDEEEARELLEQAERLAEEGNPEEAEELLERANKIAYESNNHELFALSTEVLEKVEKLSSSS
B7: il2ra_site1_2b5i_normal_mot_HHH_b2_02846_af2_000000040_0001_1_19_H_._HHH_b2_04268_af2_0001_0000100002_0000001_0_af2pred_dldesign_0_af2pred (protein)
chain: SSSSSKEQELEVSKIIEELIEEKGLTEEQEAELRTLAVDLLYKGVSVEEIKKILKEKAEKLSSSS
B8: il2ra_site2_3nfp_normal_mot_HHH_b1_05627_af2_000000038_0001_43_56_H_._HHH_b1_05806_af2_0001_0000500032_0000001_1 (protein)
chain: SSSSDKAQEYLEAAILIVELALEEGDPESARKSAEAAALLAEALGDEELLKEIEELLEEISSSSS
B9: il2ra_site2_2erj_sap_24_mot_HHH_b1_06627_000000072_0001_40_54_H_._HHH_b1_08663_af2_0001_0000500015_0000001_0_0001 (protein)
chain: SSSSDESLEVAEEMVKEAFERGDRSLLELLLRYLELALEDTNDPEIEEVLRLAEELLEELRSSSS
B10: il2ra_site1_3nfp_sap_16_mot_HHH_b1_03160_af2_000000201_0001_1_18_H_._HHH_b2_04980_0001_0000100002_0000001_0_0001_af2pred_0001_af2pred_1_swapped (protein)
chain: DEIEEELERAAEEGNLSRVLVKLIRELSEKNEELSEKLFKVLVELAHKGVPPEEIAKIAAEVFEE
B11: il2ra_site2_3nfp_normal_mot_HHH_b1_04312_000000268_0001_22_39_H_._HHH_b2_01313_af2_0001_0000200012_0000001_0 (protein)
chain: SSSSSEEAEELLERAERALEEGDLFEASELALRASEIAARLNDEELARKILELYEELARRFSSSS
B12: il2ra_site2_2erj_normal_mot_HHH_eva_0077_000000062_0001_1_20_H_._7893fd715048dbce5e23317e54f1e302_0001_0001_0000700034_0000001_0_af2pred_0001_af2pred (protein)
chain: DEEEAKEIVAEALGIPPEEVEEDVEEAKREFGDPKEVEKFLASSLRTAGVPPEEAEKLAKLLLRG
B13: il2ra_site1_1z92_sap_15_mot_HHH_b2_07283_000000256_0001_22_39_H_._HHH_b2_02826_af2_0001_0000100003_0000001_1_0001_af2pred_0001_af2pred (protein)
chain: SSSSSLSVRAAQLAAEIALELGLDDRQARELLRLAVRLANDGFSEEEIEEILRELAKELLSSSSS
B14: il2ra_site2_2erj_normal_mot_HHH_b2_08028_000000126_0001_18_34_H_._HHH_b2_03584_af2_0001_0000300005_0000001_0 (protein)
chain: SSSSDLEELLEEAKQLLEEGDPEEAHRVLSEAFELAYRNNDFELFNELAKLAELIARYEGSSSSS
B15: il2ra_site2_3nfp_normal_mot_HHH_b2_08245_000000272_0001_41_55_H_._HHH_b1_05218_0001_0000300030_0000001_0 (protein)
chain: SSSSDEERVEELLREVEELLKRGNPEEAQKLLREATKIAFENRNHELFAKIAEYLFLLVQSSSSS
B16: il2ra_site1_1z92_normal_mot_HHH_b2_07744_000000167_0001_23_40_H_._HHH_b1_00578_0001_0000200029_0000001_0 (protein)
chain: SSSTDEEAAQLLLRLLEIAVKANDEEHVRKVFEFLREHVEDAGDPELRRILEEAEELLEEVSSSS
B17: il2ra_site1_2b5i_normal_mot_HHH_b1_06833_000000207_0001_1_19_H_._ems_p1-16H-GBL-16H-GABBL-15H_0203_0001_0001_0001_0001_0000100003_0000001_0_af2pred_dldesign_0_a … (protein)
chain: SSSSSSPIDKRLDELYDKAQAAGNKEAMKKVVTAKYYYEKGEINEEELQKLIDEAEELLKSSSSS
B18: il2ra_site2_2erj_normal_mot_HHH_b1_01851_000000016_0001_43_56_H_._HHH_b1_04282_0001_0000100012_0000001_0 (protein)
chain: SSSSDEEEERIRELAEEAKRITDLREVYELVHEMLRIASERRDDELQELVMELFEEIVKLLSSSS
B19: il2ra_site1_2b5i_sap_17_mot_HHH_b1_07473_af2_000000006_0001_1_20_H_._HHH_b1_02077_af2_0002_0000800052_0000001_0_0001_af2pred_dldesign_0_af2pred (protein)
chain: SSSSDETFDKIYELYKEALEKRKQGDYEGTRELLEEALRLAEAANDAKIAAELRWLLAHLSSSSS
B20: il2ra_site1_3nfp_normal_mot_HHH_b2_06502_000000163_0001_42_55_H_._07104d7dbe42e49ee5b1eb09eb0325d4_0001_1_0001_0000400031_0000001_0_af2pred_0001_af2pred (protein)
chain: DKEKVIEKLLRDLENIPDPRVQEIVEEVKELLRQGDPEEALKLLKELAEELGDPNLRLLLERIER
B21: il2ra_site2_3nfp_sap_13_mot_HHH_b1_04032_000000208_0001_43_56_H_._HHH_b1_00623_af2_0001_0000100006_0000001_1_0001 (protein)
chain: SSSSSDEEIEELLQELERLLEEGDKEKFRRVAARAAHVIFENNDHEAFARLADLLYRLVGSSSSS
B22: il2ra_site2_3nfp_normal_mot_HHH_b1_05627_af2_000000038_0001_43_56_H_._HHH_b2_02672_af2_0001_0000400009_0000001_0 (protein)
chain: SSSSNKNEEYLRIALLLLEEALEAGDEEAIKELLEAIRIVAEILNDEEAKKLLEEVEEELSSSSS
B23: il2ra_site2_3nfp_normal_mot_HHH_b1_00660_af2_000000199_0001_40_57_H_._HHH_b2_07492_0001_0000100004_0000001_1 (protein)
chain: SSSSDVEERVRELLEKAEELREQGNPEEVRELLAEATQLAYENRDHEAFALILEVLFKLEHSSSS
B24: il2ra_site1_3nfp_normal_mot_HHH_b1_07560_af2_000000209_0001_40_57_H_._HHH_b2_06597_af2_0001_0000100007_0000001_0_af2pred_0001_af2pred_1 (protein)
chain: SSSSDIVRRVDELAREAIKLFERGNPEEAEKVLEEALKLAEEAGSELARRFLELLLKKLNSSSSS

Target: il2ra, P01589
Assay: yeast display titration

Apparent Kd, inactive:
B1 no binding seen
B2 no binding seen
B3 no binding seen
B4 no binding seen
B5 no binding seen
B6 no binding seen
B7 no binding seen
B8 no binding seen
B9 no binding seen
B10 no binding seen
B11 no binding seen
B12 no binding seen
B13 no binding seen
B14 no binding seen
B15 no binding seen
B16 no binding seen
B17 no binding seen
B18 no binding seen
B19 no binding seen
B20 no binding seen
B21 no binding seen
B22 no binding seen
B23 no binding seen
B24 no binding seen

Two entries picked at random from those above, as already listed:
Apparent Kd, inactive:
B19 no binding seen
B21 no binding seen
